This is one part of the list.
The sequences below were run against T1, OsSMF1 (Oryza sativa, UniProt Q6ZLB0 1-436) (assay: protein-binding microarray (RPBM); PBS, 2% BSA, 51.3 ng/ul salmon testes DNA, 50 uM zinc acetate, 200 nM TF, 25 C, 1 h; high values mean tight binding). Details: protein: recombinant; tags: N-terminal polyhistidine and DsRed monomer fusion (pET32a); chain copies: 2; label: CyDye5-dUTP incorporated in the synthesized complementary strand; 3' TTTTT single-stranded linker to array surface; dsDNA, one strand shown.
T1 sequence: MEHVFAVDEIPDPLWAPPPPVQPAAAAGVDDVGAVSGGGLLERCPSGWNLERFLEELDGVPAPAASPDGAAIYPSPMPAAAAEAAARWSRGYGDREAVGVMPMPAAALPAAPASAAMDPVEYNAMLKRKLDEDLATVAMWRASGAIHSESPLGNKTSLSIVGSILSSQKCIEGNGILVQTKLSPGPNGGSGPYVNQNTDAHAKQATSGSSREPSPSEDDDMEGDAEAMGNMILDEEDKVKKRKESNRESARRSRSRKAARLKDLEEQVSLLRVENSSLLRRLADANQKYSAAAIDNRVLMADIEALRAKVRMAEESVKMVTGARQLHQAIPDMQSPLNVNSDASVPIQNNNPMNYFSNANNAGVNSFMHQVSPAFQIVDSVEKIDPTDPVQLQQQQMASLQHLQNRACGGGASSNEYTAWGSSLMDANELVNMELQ
Method in brief: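 The binding signal is fluorescence intensity per array feature (arbitrary units). Readings came from an Axon 4000B scanner after a washed, 2% BSA-blocked, double-stranded custom Agilent array had been incubated for 1 h at 25 °C with 200 nM protein and 50 µM zinc acetate. The protein was a Ni–NTA-purified transcription factor fused N-terminally to polyhistidine and DsRed, expressed in E. coli BL21-CodonPlus.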

Row | Sequence | binding signal
1 | AGATATTGATTATGTTTAGCCATGTGGCTCCTTAAATGGGCGGAGTCACCTAGTGCAG | 4520 fluorescence intensity (a.u.)
2 | AATTCAAATAAACCGAGATAGAATGCGTGTGCCAGTTTAGCGGAGTCACCTAGTGCAG | 3470 fluorescence intensity (a.u.)
3 | GTGTACACTCCGGCTTGGCCCATTAATCTTTAGGCCCAACCGGAGTCACCTAGTGCAG | 19500 fluorescence intensity (a.u.)
4 | ATGAAACAGAAGAGTGGATATCTTATACATACTAACTACACGGAGTCACCTAGTGCAG | 21900 fluorescence intensity (a.u.)
5 | CATGTCAGGACGCCACGTCATCATGCTCTCTCTTTCCCCTCGGAGTCACCTAGTGCAG | 33600 fluorescence intensity (a.u.)
6 | GCCTTCCCCTCCCACGTGGATCCCCGCGCAACCGTCAGATCGGAGTCACCTAGTGCAG | 9890 fluorescence intensity (a.u.)
7 | AGCTGTGCCAACGAGCCCTTAATTAGTTATTATCTCTTCTCGGAGTCACCTAGTGCAG | 44600 fluorescence intensity (a.u.)
8 | TGTGTGTCCGTATGTTTGATGTGACAAACAAACTTAAAATCGGAGTCACCTAGTGCAG | 28600 fluorescence intensity (a.u.)
9 | ATCAAGAATTGAGTACCTAGTACTATGTGGCATTCCAGTGCGGAGTCACCTAGTGCAG | 3990 fluorescence intensity (a.u.)
10 | ACCTTCTAGACAAGGGTATGATGACATGTACCGATCCCAACGGAGTCACCTAGTGCAG | 6680 fluorescence intensity (a.u.)
11 | GTGGCGTCTGTGACCGTCAGGCGTCAGCTCGTGTCCTCGCCGGAGTCACCTAGTGCAG | 4120 fluorescence intensity (a.u.)
12 | AATCCGAGTAGTCATTGTCGTTTCCATGCAGAATTATGGTCGGAGTCACCTAGTGCAG | 4030 fluorescence intensity (a.u.)
13 | ATGGCAGAGCTCCTACCCACAAATGTGTAGCTTTCATATTCGGAGTCACCTAGTGCAG | 7290 fluorescence intensity (a.u.)
14 | GAGAGGCGTGGGTTGATCGCAAAAGCAATAGGCTCCTCACCGGAGTCACCTAGTGCAG | 3940 fluorescence intensity (a.u.)
15 | ATTAATGCCCCAGTATCTGTCATCAAATTGCCAAAGCCGTCGGAGTCACCTAGTGCAG | 3210 fluorescence intensity (a.u.)
16 | ACTAGTTGGGGTGTATAAGGTATGAGTATGATATATATGGCGGAGTCACCTAGTGCAG | 3400 fluorescence intensity (a.u.)
17 | ACGTAGACGGTCTCGTGAGTTGTGTTGTGTTGTGACTTGTCGGAGTCACCTAGTGCAG | 4370 fluorescence intensity (a.u.)
18 | TATTTTATTATGACTTGATTCGTCATCAAATGTTGTTTAACGGAGTCACCTAGTGCAG | 4940 fluorescence intensity (a.u.)
19 | AGCTGTTCGACTACGCCATTGTCGTCACTCACTCCACCGTCGGAGTCACCTAGTGCAG | 3290 fluorescence intensity (a.u.)
20 | TTCTCTGTCACACAAAGCGGTGCAGCTCCACACGGCACCTCGGAGTCACCTAGTGCAG | 3900 fluorescence intensity (a.u.)
21 | TTCTTCTGTGTTTGTCGATTCAGGGCTCCTTTGGAACGCACGGAGTCACCTAGTGCAG | 31100 fluorescence intensity (a.u.)

Row | Sequence | binding signal
22 | CAACCGGGTGGAGGGGCCCACGCGGCGACGAGCGGCAGATCGGAGTCACCTAGTGCAG | 3380 fluorescence intensity (a.u.)
23 | CAACTATTTTGTGGTGTCAGCAATTTATGGTGCTCTGTTCCGGAGTCACCTAGTGCAG | 5750 fluorescence intensity (a.u.)
24 | GTCTCGACCATCCGCCACGTAGGAGTTCGTTGTTGCTTATCGGAGTCACCTAGTGCAG | 7650 fluorescence intensity (a.u.)
25 | AGTGTAATACCAGCCACCTCCATTGACGCGTGGGCCCCAGCGGAGTCACCTAGTGCAG | 3200 fluorescence intensity (a.u.)
26 | GCCCCGCCCCGCCCATCTTGTCAGATCCTTCTTCATAGTTCGGAGTCACCTAGTGCAG | 3210 fluorescence intensity (a.u.)
27 | AGATTTACACCTTAATATATCCGATGTTTGATTGTTCGTTCGGAGTCACCTAGTGCAG | 31300 fluorescence intensity (a.u.)
28 | TCTCTTCCCCTCTCCGCGCCGCCCTCCGCCCCGCCCGCGGCGGAGTCACCTAGTGCAG | 3270 fluorescence intensity (a.u.)
29 | CTTTCTTCTTCTCACACAAGCACAGTGCCATTTGAATCATCGGAGTCACCTAGTGCAG | 4480 fluorescence intensity (a.u.)
30 | TCCAAATAGCACGTACGCATGCATGCGTCCATGCCATCTCCGGAGTCACCTAGTGCAG | 3270 fluorescence intensity (a.u.)
31 | GAGAGAGTGTAGGTTGCCGATGACGTTCCAAATATTGATCCGGAGTCACCTAGTGCAG | 4490 fluorescence intensity (a.u.)
32 | GAACGGCGTTTTATCCTTTTCCATGTCATCACTCAGGAGACGGAGTCACCTAGTGCAG | 10600 fluorescence intensity (a.u.)
33 | ACTACTACCTCTTTGTACAAATGTATGACGTTGGTTAGTTCGGAGTCACCTAGTGCAG | 4600 fluorescence intensity (a.u.)
34 | CAGAAAGTGTTGACTCGGATTTGACGATTGGGTCGTGGTTCGGAGTCACCTAGTGCAG | 6630 fluorescence intensity (a.u.)
35 | GAGGACGGGAGGCTTCCTCGCCACGCCGCCCTCGCCGCCGCGGAGTCACCTAGTGCAG | 3570 fluorescence intensity (a.u.)
36 | ATGGTGCTACCGTAAATATTTGCTAATAACAGATTAATCACGGAGTCACCTAGTGCAG | 28700 fluorescence intensity (a.u.)
37 | CATAATATGGTAGTGTTGTTTCTCATGCAAGTATTGGCGTCGGAGTCACCTAGTGCAG | 3160 fluorescence intensity (a.u.)
38 | CCGCGCCCGCCTCGCCGACTTTGGTCTCTCCCGCATCAATCGGAGTCACCTAGTGCAG | 3400 fluorescence intensity (a.u.)
39 | TGACCTAATACATTCATGCTGACTAGCGTTTACGTGGCAACGGAGTCACCTAGTGCAG | 14100 fluorescence intensity (a.u.)
40 | CTTCTCCCCTCGCCACCTCGGACTCGACCCCGTCCATGACCGGAGTCACCTAGTGCAG | 4750 fluorescence intensity (a.u.)
41 | CGCCGATGACTCCGCGCCGCTCGGCCTCGTCGTCATCGGCCGGAGTCACCTAGTGCAG | 5580 fluorescence intensity (a.u.)
42 | GCCCGGCCGCGCCCGCACATGCACGCGTGCACTCAGAGAACGGAGTCACCTAGTGCAG | 3170 fluorescence intensity (a.u.)

Retrieved one by one from the list above, two records:
Row | Sequence | binding signal
42 | GCCCGGCCGCGCCCGCACATGCACGCGTGCACTCAGAGAACGGAGTCACCTAGTGCAG | 3170 fluorescence intensity (a.u.)
37 | CATAATATGGTAGTGTTGTTTCTCATGCAAGTATTGGCGTCGGAGTCACCTAGTGCAG | 3160 fluorescence intensity (a.u.)
